No constants are given. Whether binding was seen depends on the method and setting. Some entries that bind do so weakly or less than the wild type. Sequences can lack the tags named with a protein.

The source of these data is paper PMC3241699.

The target in this experiment is T1, yeast Nip7p fused to the DNA binding domain of lexA (yeast (S. cerevisiae)) (UniProt Q08962).
T1 sequence: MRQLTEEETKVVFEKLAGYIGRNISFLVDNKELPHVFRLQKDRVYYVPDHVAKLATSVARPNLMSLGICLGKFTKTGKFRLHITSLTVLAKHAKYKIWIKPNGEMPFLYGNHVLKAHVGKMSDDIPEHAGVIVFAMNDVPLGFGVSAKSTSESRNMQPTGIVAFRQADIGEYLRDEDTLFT
In words: two-hybrid; yeast strain L40; lexA DNA-binding domain fusion as bait, GAL4 activation domain fusion (pACT2) as prey; reporters HIS3 (growth with 3-aminotriazole) and lacZ (X-Gal filter assay).

B1: yeast Nop8p fused to activation domain of GAL4 (protein, UniProt Q08287 1-484)
chain: MDSVIQKRIFVGNIFHNADDCYSELLDRFGKFGDCQDFQFEKHNHFAFIDIRFNDEADFNKLRKSFNNVKFKGNILKVDEAKPNWESTWAVQHAKDLKEDIILNAKMKKKNWQHYKKMENVAKSWKDHKEVIAGRMREAPRKRSQLRNITFRINVNGSLKVYKCYKTKLWGYERNKELNDLVYKFTNNFWKNGYNHIVDRLDYSRAVKTVRFKNGLKQLTVSKDENVCSGEMDSDENMSEEEKEKNNVILNDLLKDFDFDKPMTLNDSDEELLTEQRKGEEEEEEEEEKEVNAPEYENVNKTKDQSTLPQEKPEERKEQDEGDGQEDNEFIPTFTKEIGQGTISNTETLRNLFNPNEAEPVSQFKLIEDSDNDIDHAKDVDVNQLEEEVSKSSDTLGLTSAPVPHVSRDKDNKNFLFFPHLQSPFLVGQTQLSKVRAPGRETMLSNWDEEFWANRGNWTRDMRRKMKDALKHRKRKQSKSGLLL
With B1, the binding result was “binds”.
